Measured values reported in article PMC4303232.
Results are given in words; binding and its absence hold for the method and conditions named. In cells and extracts the contact can be indirect. Some entries that bind do so weakly or less than the wild type.

Amino acid sequences for entries named in this document (tags omitted). A change or cut given only in a name is not applied to a line headed by its entry.
UniProt Q15121: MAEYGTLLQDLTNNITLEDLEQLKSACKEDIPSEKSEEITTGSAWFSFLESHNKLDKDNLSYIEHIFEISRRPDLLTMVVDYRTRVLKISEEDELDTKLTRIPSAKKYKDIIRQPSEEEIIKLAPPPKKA
UniProt Q13158: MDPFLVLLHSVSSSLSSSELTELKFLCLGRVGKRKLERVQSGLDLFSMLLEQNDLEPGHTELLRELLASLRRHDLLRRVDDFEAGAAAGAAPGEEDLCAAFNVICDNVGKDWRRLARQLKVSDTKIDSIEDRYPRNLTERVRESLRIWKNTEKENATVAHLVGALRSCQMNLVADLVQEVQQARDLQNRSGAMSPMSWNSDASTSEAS

Columns and labels:
[1] = molecular target: Flag-tagged PEA15 S116A mutant (UniProt Q15121); experiment: co-IP; BT 474 cells stably expressing flag-tagged WT-PEA15 or PEA15-S116A, seeded in methyl cellulose for two days; immunoprecipitated with anti-flag antibody; immunoblot
[2] = molecular target: Flag-tagged wild-type PEA15 (UniProt Q15121); experiment: as above

With “Fas-associated death domain protein (FADD), endogenous (from UniProt Q13158 1-208)” the binding [1] was “binds” and the binding [2] was “binds”.
